Measurements from article PMC4299599, “Quantification of cytosolic interactions identifies Ede1 oligomers as key organizers of endocytosis” (Molecular Systems Biology, 2014).
No constants are given. Whether binding was seen depends on the method and setting.

Target: T1, Scd5 (S. cerevisiae) (UniProt P34758)
T1 sequence: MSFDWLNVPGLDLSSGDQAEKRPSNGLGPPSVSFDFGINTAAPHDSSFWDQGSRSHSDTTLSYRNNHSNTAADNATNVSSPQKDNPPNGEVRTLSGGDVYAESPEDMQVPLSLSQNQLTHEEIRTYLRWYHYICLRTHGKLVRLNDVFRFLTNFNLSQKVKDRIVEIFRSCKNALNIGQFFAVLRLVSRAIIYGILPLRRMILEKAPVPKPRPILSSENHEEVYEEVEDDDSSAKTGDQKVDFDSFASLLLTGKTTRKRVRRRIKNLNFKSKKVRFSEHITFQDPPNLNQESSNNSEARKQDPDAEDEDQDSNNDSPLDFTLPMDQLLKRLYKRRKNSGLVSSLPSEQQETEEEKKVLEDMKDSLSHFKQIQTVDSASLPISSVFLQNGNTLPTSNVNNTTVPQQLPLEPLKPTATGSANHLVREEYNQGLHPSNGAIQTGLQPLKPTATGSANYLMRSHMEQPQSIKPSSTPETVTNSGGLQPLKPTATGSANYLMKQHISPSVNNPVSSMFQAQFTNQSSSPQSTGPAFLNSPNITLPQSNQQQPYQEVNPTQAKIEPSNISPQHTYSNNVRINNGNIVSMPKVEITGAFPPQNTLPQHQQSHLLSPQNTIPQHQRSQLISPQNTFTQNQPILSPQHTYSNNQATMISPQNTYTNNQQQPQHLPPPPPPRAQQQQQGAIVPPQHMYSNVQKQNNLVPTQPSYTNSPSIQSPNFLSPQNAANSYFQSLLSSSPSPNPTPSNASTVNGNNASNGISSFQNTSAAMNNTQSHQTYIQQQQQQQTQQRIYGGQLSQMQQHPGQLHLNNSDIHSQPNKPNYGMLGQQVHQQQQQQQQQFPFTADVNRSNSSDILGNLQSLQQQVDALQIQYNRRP
Assay: condition: detection range of FCCS: apparent KD up to ~1 μM; fluorescence cross-correlation spectroscopy (FCCS); living yeast cells, observation volume in the cytoplasm; one protein tagged with (3)myeGFP/eGFP and the other with 3mCherry in the same strain; apparent (effective) KD; interactions up to ~1 μM detectable

binding: no binding
B1: Pan1 (protein, UniProt P32521 1-1480)
chain: MYNPYQQQGMGYQQQQQQQQQQPNGFYPQQQQGQSSNQPQGQPQPQQQMAFNQPQATGIGGMPQSFGNSFSSMPQQPQTGYNNNGNNGSVYGNGNFGQQPQQQQQQAKPQHTGYVPNSSMPMMNTTGTMPPPNPAQQPQLQSIQPQGTGYYQAANTANVHSVQPLQSQGTGYYVSTPNLISSNQTQQPLQAQGTGYYQSQPQQVPPPQQAQSLQPLKPQQTGFYLQPQNQAPLEPLKPTATGFVNSFANNGLNNDIKIPAIRLSFITAQDQAKFETLFRSIVTNGSNTVSGANCRKILMRSGLPPSQLARIWTLCDTSKAGELLFPEFALAMHLINDVLQGDTIPYELDSKTKNEVSSFIDAINLSIANQDSSANDAPKTPFDEFITAGVQNLQPQPTGYMPQTSFGIPLQSQITGGGVASALNPQSTGFMAPTTFNMSMNTGTPGLNPQITGGAPASMQPNITGNALQPQTTGMMPQTTGMMPQTTGMMPQTSFGVNLGPQLTGGALQSQYTGGYGSVMPQQSGPASMPNLSFNQQGLQSQLTGLQPQPTGFLPPSNFSATMPLTAQKTGFGNNEIYTKSNFNNNLIDNSSQDKISTEEKSLFYKIFETFDTQNKGLLDSPTAVEIFRKSGLNRADLEQIWNLCDINNTGQLNKQEFALGMHLVYGKLNGKPIPNVLPSSLIPSSTKLLDNLKNQLKTEPTTTKEKPSFGKIDALSYKNNDDDVLPNYRNRRKVYSAKNEEQSSFSSPSAKSVNHSSSTLQTDDISVDKTVEKKTAKPKYAGFSREINLKNIASLENEIKNISNPENCYDSSIPSDLTSRFDAIIAKLPNLFNEISTIDNEITNAKIQLYRKKNPSSIIGSGPNGEITENDRKKAKSRALLRARMSALTGKSTESEDSLSMEDEQQSAEIKRIQQENGKNQEIIKDIRSSISDISASLKSTMTGSNMISNQEFERWEFGIGLEDGVREFLDDLKSNSNKSVTESSPFVPSSTPTPVDDRSSSPSYSQFKTAEERAAYLKEQAKKRMKEKLAKFDKNRRNVTQSSRSISSENSREQPQQIAGSSNLVEPRATPFQEEKYVEVAQPTQPVQSTQPVQPTQPVQPTQPVQPTQPVQPTQPVQPTQPVQNVYNAKQESDDEDEDDEEKRLQEELKRLKLKKKADKEKRLAALRKQIEDAQNESDEEETNGKDNFGGHVNVPQAAPVAPSAAFSQNSTNAPRSVHAAVTPAAGKNSTGLPSTTMGHNPYFKDASASSTSTFDARAAEMQRRIQRGLDEDEDDGWSDEDESNNRVAVDNKVEEAKIGHPDHARAPPVTAAPLPSVTPVPPAVPVPQANTSNEKSSPIPIAPIPPSVTQEPPVPLAPPLPAVDGFQEPPIPSAPAIATAVQKSGSSTPALAGGVLPPPPPLPTQQASTSEPIIAHVDNYNGAEKGTGAYGSDSDDDVLSIPESVGTDEEEEGAQPVSTAGIPSIPPAGIPPPPPLP
